# Results: PubChem BioAssay AID1439 (NMMLSC, 2008)
# Sequences of proteins named here, by UniProt entry; tags and fusion partners are left off.
# UniProt P09471, whole entry, looked up: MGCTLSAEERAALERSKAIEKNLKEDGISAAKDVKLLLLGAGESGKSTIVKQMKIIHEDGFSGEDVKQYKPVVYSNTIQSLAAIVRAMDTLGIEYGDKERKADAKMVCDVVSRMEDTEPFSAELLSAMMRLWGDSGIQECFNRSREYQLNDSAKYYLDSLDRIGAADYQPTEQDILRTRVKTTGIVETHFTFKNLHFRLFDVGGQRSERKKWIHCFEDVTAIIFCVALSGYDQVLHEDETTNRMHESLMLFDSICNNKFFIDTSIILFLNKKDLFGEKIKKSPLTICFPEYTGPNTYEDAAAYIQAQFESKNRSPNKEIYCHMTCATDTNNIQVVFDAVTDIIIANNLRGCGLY
# About 770 (0.35%) of roughly 220,000 compounds were called active. This list was built around the results that the source calls inconclusive (neither active nor inactive); the mix of calls is not that of the screen. Rule as the data show it: active = binding response below about 49% or above about 150%; inconclusive = no clear call, values can overlap the other calls; inactive = in between.
# Target: Guanine nucleotide-binding protein G(o) subunit alpha (Homo sapiens) (UniProt P09471)
# Assay: RGS7-Galphao binding modulators, primary screen, biochemical, multiplexed bead flow cytometry (AID 1439);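 also: fluorescent Galphao held in activated GDP-AlF4 state binding bead-coupled RGS7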
# Conditions: at 10 µM, actives lie on both sides
row,SMILES,binding response (% of control)
1,O=C(O)CCC(=O)Nc1ccc(Br)cc1C(=O)c1ccccc1,inconclusive: 83.8%
2,O=C(O)c1ccc(/C=N/N2CCN(C3c4ccccc4-c4ccccc43)CC2)cc1,inconclusive: 141%
3,CC(/C=C1\SC(=Nc2cccnc2)NC1=O)=C\c1ccccc1,inconclusive: 109%
4,COc1ccc(-c2cc(C#N)nc(Oc3ccc(Cl)cc3)n2)cc1,inactive: 102%
5,O=S1(=O)CCN(Cc2ccc(Cl)c(C(F)(F)F)c2)CC1,inconclusive: 93.7%
6,CC1=NCCN1CCNC(=O)Nc1ccc(F)cc1,inconclusive: 67.2%
7,O=C(NN(C(=O)c1ccccc1)c1ccccc1)c1ccccc1,inconclusive: 124%
8,C=CC[n+]1c(-c2ccc(C)cc2)csc1Nc1ccc(NC(C)=O)cc1,inconclusive: 98.2%
9,COc1ccc(NC(=S)N2CCCC2)cc1OC,inactive: 105%
10,COc1cc(/C=N/n2c(-c3cc(C)[nH]n3)n[nH]c2=S)cc(OC)c1O,inconclusive: 57.9%
11,COc1ccc(OC)c(-c2cnc(OC(C)(C)C)nc2OC(C)(C)C)c1,inactive: 92.4%
12,C#Cc1ccc([C@H]2C=C(C(=O)N3CCN(Cc4ccc5c(c4)OCO5)CC3)O[C@@H](OCc3ccc(CO)cc3)C2)cc1,inactive: 95.2%
13,O=C(CN1CCN(Cc2ccccc2)CC1)Nc1cccc(S(=O)(=O)N2CCCCCC2)c1,inconclusive: 87.6%
14,C(=C/c1ccnc2nc(SC/C=C/c3ccccc3)nn12)/c1ccccc1,inactive: 103%
15,CC(C)NC[C@H](O)COc1cccc2[nH]ccc12,inconclusive: 75.7%
16,c1ccc(N2OCC3Cn4c(nc5ccccc54)C32)cc1 (stereo not given),inconclusive: 94.2%
17,COc1ccc([C@H]2C(C#N)=C([S-])N[C@](C)(O)[C@@H]2[n+]2ccccc2)cc1,inconclusive: 86.4%
18,CC(C)=NN1C(c2nonc2N)=NOC1(C)C,inconclusive: 403%
19,CCOc1cc(/C=C2\SC(=O)N(c3ccc(O)cc3)C2=O)ccc1O,inconclusive: 374%
20,Cc1ccccc1NC(=O)c1ccccn1,inconclusive: 60.2%
21,CN(C)c1cccc(C(=O)Nc2cc(C(F)(F)F)ccc2-n2cnc3ccccc32)c1,inactive: 115%
22,CCOC(=O)c1ccc(NC(=S)N(CCCN2CCN(C)CC2)Cc2cccs2)cc1,inconclusive: 105%
23,O=c1c(Cc2c(F)cccc2Cl)c(O)ccn1Cc1ccc(F)cc1,inconclusive: 106%

row,SMILES,binding response (% of control)
1,S=C(NCCc1ccccc1)Nc1ccccc1N1CCOCC1,inconclusive: 106%
2,CCn1nnc2cc(C(=O)O)ccc21,inconclusive: 118%
3,CC1=C(C#N)S(=O)(=O)C(C#N)C(c2ccccc2)C1 (stereo not given),inconclusive: 121%
4,COC(=O)c1cn(Cc2cccnc2)c(=O)c2ccccc12,inconclusive: 106%
5,O=S(=O)(O)c1nc2ccccc2[nH]1,inconclusive: 108%
6,Cc1[nH]c2ccccc2c1/C=N/NC(=O)CNC(=O)c1ccc2c(c1)OCCO2,inconclusive: 106%
7,Nc1nonc1C(=O)N1CCCC1,inconclusive: 88.9%
8,Cc1ccc(CN(C(=O)c2cc(=O)c3cc(C)cc(C)c3o2)C2CCS(=O)(=O)C2)cc1 (stereo not given),inconclusive: 48.6%
9,CCC(C)NC(=O)C1c2ccccc2C(=O)N(c2ccc(OC)cc2)C1c1ccc(OC)cc1 (stereo not given),inactive: 104%
10,O=c1ccn(Cc2ccccc2)cc1,inconclusive: 106%
11,COC(=O)CCC(=O)OC1(C)C(=O)C=C2C=C(C3CC3)N(C3CCCCC3)C=C2C1=O (stereo not given),inconclusive: 86.6%
12,Cc1ccc(CNC(=O)CCC2CCCN(Cc3cccc4c3OCO4)C2)o1 (stereo not given),inconclusive: 81.1%
13,O=C1c2cccnc2C(Nc2ccc(Br)cc2Br)N1Cc1cccs1 (stereo not given),inconclusive: 109%
14,CCc1sc(C(=O)NCCc2ccc(S(N)(=O)=O)cc2)cc1Br,inconclusive: 96.2%
15,COc1cc(CC(NC(C)=O)C(=O)NC2CCN(c3nc(OC)nc(OC)n3)CC2)cc(OC)c1 (stereo not given),inconclusive: 107%
16,CC(C)n1c(SCC(=O)N2CCN(C(=O)c3ccco3)CC2)nc2c1c(=O)n(C)c(=O)n2C,inconclusive: 105%
17,CCOC(=O)CC1COCCN1Cc1cn[nH]c1-c1cc(OC)c(OC)c(OC)c1 (stereo not given),inconclusive: 133%
18,O=C(NCc1ccccc1)Nc1cc(Cl)ccc1Cl,inconclusive: 113%
19,Cc1nc([N+](=O)[O-])cn1CC(=O)Nc1ccc2c(c1)OCO2,inconclusive: 104%
20,O/N=C/c1cccnc1Sc1ccccc1,active: 157% [activator]
21,Nn1c(SCC(=O)NC2CCS(=O)(=O)C2)nnc1-c1cccs1 (stereo not given),inconclusive: 69.6%
22,O=C1NCCN(Cc2ccc(Cl)c(F)c2)C1CC(=O)N1CCCCO1 (stereo not given),inactive: 103%

# Reformatted tab-delimited: 2 of the compounds above
row	SMILES	binding response (% of control)
2	CCn1nnc2cc(C(=O)O)ccc21	inconclusive: 118%
3	CC1=C(C#N)S(=O)(=O)C(C#N)C(c2ccccc2)C1 (stereo not given)	inconclusive: 121%
